Measured values as given in PubChem BioAssay AID651640 (Broad Institute, 2012).
Several values for one entry are separate records, joined by “and”; a condition that tells them apart may be missing. Equal entries are not always repeated. Screen size: about 350,000 compounds; about 6,000 (1.7%) were called active. Inconclusive means that the source gave no clear call. Such entries were picked first, then a sample of the others. Cut-off read from the data, not from the text of the source: active = CPE inhibition above about 20% (passing the limit was not always enough); inconclusive = no clear call, values can overlap the other calls; tested in BHK-21 cells. Some compounds were tested as several samples or in several runs, with calls that do not always agree.

Test: protection of cells from dengue 2 killing – plate reader, single concentration, primary screen (AID 651640);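 note: 0% = median of neutral control wells and 100% = median of positive control wells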
Details: DENV2-infected cells, cytopathic effect rescue, at 9.99 µM, active compounds read high

SMILES	CPE inhibition
Cc1ccc(CCC(=O)Nc2ccc(Cl)cc2)o1	inactive: 16%
CCOC(=O)c1c(NC(=O)COC(=O)Cn2cnc3c2c(=O)n(C)c(=O)n3C)sc(C)c1CC	inconclusive: 55%
COc1ccc(OC)c(-c2nc(C(=O)NCCCN3CCOCC3)cc3c2[nH]c2ccccc23)c1	inconclusive: 21.6%
Cc1cc(C(=O)Nc2cccc3c2O[C@H](CN(C)C(=O)NC(C)C)[C@@H](C)CN([C@@H](C)CO)C3=O)n(C)n1	inactive: -3.56%
CCOc1ccc(C(C)=O)cc1COC(=O)c1cc([N+](=O)[O-])ccc1N1CCOCC1	inconclusive: 25.3%
C[C@H]1CN([C@@H](C)CO)C(=O)c2cccc(N(C)C)c2O[C@H]1CN(C)C(=O)Nc1ccccc1	inactive: 0.823%
COc1ccc(CN(C)C[C@H]2Oc3ccc(NC(=O)Cc4cn(C)c5ccccc45)cc3C(=O)N([C@@H](C)CO)C[C@@H]2C)cc1	inactive: 9.86%
CCN(CC)C(=O)[C@H]1CC(CC(=O)NC/C=C(\C)CCC=C(C)C)C(=O)N2CCc3c([nH]c4ccc(OC)cc34)[C@]12C (some centres undefined)	active: 40.4%
Cc1ccccc1-c1nc2c(s1)CCc1onc(-c3ccc(Cl)cc3)c1-2	active: 105%
O=C(O)C[C@@H]1CC[C@@H](NC(=O)Nc2cc(F)ccc2F)[C@@H](CO)O1	inactive: 4.56%
CO[C@@H]1CC[C@H]2CCOc3c(C#N)cccc3C(=O)N(C)C[C@@H](OC)[C@@H](C)C(=O)N(C)C[C@H]1O2	inactive: -0.986%
O=C(C[C@H]1CC[C@@H]2[C@H](COC[C@@H](O)CN2C(=O)Cc2ccccc2)O1)NC1CCCC1	inconclusive: 110%
COc1ccccc1N1CCN(S(=O)(=O)CCNC(=O)CCc2ccccc2)CC1	active: 119%
O=C(NCCCc1nc2ccccc2[nH]1)c1ccco1	inactive: -1.69%
COC(=O)C[C@H]1C[C@H]2c3cc(NC(=O)Nc4ccc(C(F)(F)F)cc4)ccc3O[C@H]2[C@@H](CO)O1	inconclusive: 22.2%
C[C@@H]1CN([C@H](C)CO)C(=O)c2cc(NC(=O)Nc3cccc4ccccc34)ccc2O[C@@H]1CN(C)C(=O)Nc1ccc(F)cc1	active: 24.5%
CN(C)C(=O)C[C@@H]1CC[C@H]2[C@@H](COC[C@@H](O)CN2C(=O)C2CC2)O1	inconclusive: 20.9%
CNC[C@@H]1Oc2ccc(N)cc2C(=O)N([C@H](C)CO)C[C@H]1C	inconclusive: 40.1%
O=C(NC1CCCCC1)C(c1ccccc1)n1c(=O)c(-c2ccco2)nc2ccccc21 (centres undefined)	inconclusive: 39.8%
COCC(=O)N1[C@@H](C#N)[C@H](c2ccc(-c3cccc(F)c3)cc2)[C@@H]1CO	inconclusive: 58.8%
CC(=O)N(C)C[C@H]1Oc2ncc(C#Cc3ccccc3)cc2C(=O)N([C@H](C)CO)C[C@H]1C	active: 48.3%
C[C@@H]1CCCCO[C@@H](CN(C)Cc2ccccc2)[C@@H](C)CN([C@H](C)CO)C(=O)c2cc(NC(=O)c3ccncc3)ccc2O1	inconclusive: 45.7%

Two of the compounds above, in markdown:

| SMILES | CPE inhibition |
| --- | --- |
| O=C(NCCCc1nc2ccccc2[nH]1)c1ccco1 | inactive: -1.69% |
| COC(=O)C[C@H]1C[C@H]2c3cc(NC(=O)Nc4ccc(C(F)(F)F)cc4)ccc3O[C@H]2[C@@H](CO)O1 | inconclusive: 22.2% |

Following part:

SMILES	CPE inhibition
CC(C)NC(=O)NCC[C@H]1CC[C@H](NC(=O)Nc2ccccc2)[C@H](CO)O1	inactive: 16.6%
O=C(N[C@H]1CC[C@H](CCNC(=O)C2CC2)O[C@@H]1CO)c1ccncc1	inconclusive: 44%
C[C@@H]1CCCCO[C@H](CN(C)Cc2ccc3c(c2)OCO3)[C@@H](C)CN([C@H](C)CO)C(=O)c2cc(NC(=O)NC3CCCCC3)ccc2O1	inconclusive: 32%
NC(=O)CC(NC(=O)c1ccc(Br)cc1)c1ccc(NC2CCCCC2)c([N+](=O)[O-])c1 (centres undefined)	inconclusive: 46.9%
COc1cccc(NC(=O)C[C@H]2CC[C@@H]3[C@H](COc4ccc(NC(=O)C5CCOCC5)cc4C(=O)N3C)O2)c1	inactive: 3.01%
CC(C)C[C@@H](CO)NS(=O)(=O)c1c(F)cccc1F	active: 49.3%
C[C@@H]1CN([C@@H](C)CO)C(=O)c2cc(NS(=O)(=O)c3ccc(F)cc3)ccc2O[C@@H](C)CCCCO[C@H]1CN(C)Cc1ccccc1	inactive: 4.48%
OCCN1CCN(CC(O)COCC2COc3ccccc3O2)CC1 (centres undefined)	inconclusive: 34.2%
C[C@H]1CN([C@@H](C)CO)C(=O)c2cc(NC(=O)C3CC3)ccc2O[C@@H]1CN(C)S(=O)(=O)c1ccc(F)cc1	inconclusive: 21%
CC(C)NC(=O)N(C)C[C@@H]1OCCCC[C@@H](C)Oc2ccc(NC(=O)Nc3ccc(F)cc3)cc2C(=O)N([C@H](C)CO)C[C@@H]1C	active: 47.5%
COc1ccc(NC(=O)N(C)C[C@H]2OCCCC[C@@H](C)Oc3ccc(N(C)C)cc3C(=O)N([C@@H](C)CO)C[C@@H]2C)cc1	inactive: 5.44%
COc1c(/C=C2\SC(=Nc3ccccc3Cl)NC2=O)cccc1[N+](=O)[O-]	inactive: 8%
Cc1nn2cc(-c3cccc(Cl)c3)cnc2c1Br	inconclusive: 24.2%
COc1ccc(NC(=O)N(C)C[C@@H]2Oc3ccc(NC(=O)Cc4ccccc4)cc3CC(=O)N([C@H](C)CO)C[C@@H]2C)cc1	inconclusive: 35.9%
Cc1ccc(S(=O)(=O)N(C)C[C@@H]2Oc3ncc(-c4ccccc4)cc3C(=O)N([C@H](C)CO)C[C@@H]2C)cc1	inactive: 9.12% and inactive: 5.67%
COc1ccc(C(=O)Nc2ccc(NC(=O)c3cccs3)cc2)cc1Cl	inactive: -5.62%
Nc1ccn([C@@H]2O[C@H](C(=O)N[C@H](Cc3ccccc3)C(=O)Nc3ccc4scnc4c3)[C@@H](O)[C@H]2O)c(=O)n1	inactive: 3.73%
COc1ccccc1-c1ccc2c(c1)O[C@@H](CN(C)S(=O)(=O)c1ccccc1)[C@H](C)CN([C@H](C)CO)S2(=O)=O	inactive: -5.15%
O=C(COC(=O)/C=C/c1ccc(Cl)cc1)NC1CCS(=O)(=O)C1 (centres undefined)	inconclusive: 60%
CCOc1ccc2ccccc2c1CNCCCN1CCOCC1	inconclusive: 20.7%
CCCNC(=O)CN1CCN(S(=O)(=O)c2ccc(Br)s2)CC1	inconclusive: 21.8%
C[C@@H]1CN([C@@H](C)CO)C(=O)c2cc(C#Cc3cccnc3)cnc2O[C@@H]1CN(C)C(=O)CN(C)C	inconclusive: 44.7%
